# Out of some 400,000 compounds screened, about 13,000 (3.2%) were called active. The shares of active, inactive and inconclusive entries below differ from those in the screen. Calls follow the shape of the dose curve; as a rule, active = well fitted cell-killing curve with a large enough effect; inconclusive = small, poorly fitted or top-dose-only effect, or effect the other way; inactive = flat fitted curve, though single readings scatter. Potencies of inconclusive entries are doubtful fits and often do not repeat.
# Experiment: qHTS assay for MDR1-selective chemotherapeutics: Primary screen using the drug-selected MDR subline cells KB-V1; also: nearly all actives have a fitted effect of over 60% in size
# Details: KB-V1 MDR cells viability, CellTiter-Glo, 72 h; series mostly up to 46.1 µM
# How it was run: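 Cytotoxicity via CellTiter-Glo luminescence after 72 h compound exposure at 37 degrees C. Cells: drug-selected KB-V1 line, DMEM phenol-red free plus 10% FBS. Compounds tested at multiple concentrations; normalized data fitted to concentration-effect curves.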
# Potency is read from the fitted curve at half-maximal effect.
row,SMILES,Potency
1,Cc1cccc(Nc2nc(N)nc(-c3oc4ccccc4c3C)n2)c1,active: 20.6 µM
2,Brc1cnc(N2CCCC2)nc1N1CCOCC1,"inconclusive: 25.9 µM [cytotoxic, single point]"
3,Cn1c2ccc(F)cc2c2ncn(Cc3ccco3)c(=O)c21,active: 4.11 µM
4,CCOc1ccc(N(Cc2ccc(C(=O)O)cc2)S(=O)(=O)c2ccc(C)cc2)cc1,"inconclusive: 18.4 µM [cytotoxic, single point]"
5,O=S(=O)(NCCc1csc(-c2ccccc2)n1)c1cccnc1,inactive
6,O=C(Nc1cccc(-c2nc3ccccc3[nH]2)c1)c1cccc(NC(=O)c2ccco2)c1,inactive
7,CCc1nc2c(OCc3ccccc3C)cccn2c1N(C)C(=O)c1ccc(C)cc1,inactive
8,O=S(=O)(c1cccc2ccccc12)N1CCC2CC1c1cc(Cl)ccc12 (stereo not drawn),inactive
9,CCOc1ccc(CN2C(=O)c3ccccc3Sc3ccc(C(=O)NC4CCC(C)CC4)cc32)cc1 (stereo not drawn),inactive
10,Cc1noc(C)c1C(=O)Nc1nccs1,inactive
11,COc1ccc(C(CC(=O)N2CCCCC2)c2c(OC)cc(OC)c3c(-c4ccccc4)cc(=O)oc23)cc1 (stereo not drawn),"inconclusive: 4.11 µM [rising, full curve, poor fit]"
12,COc1ccc2c(c1)N(C[C@H](C)CN(C)C)c1ccccc1S2,"inconclusive: 20.6 µM [cytotoxic, single point]"
13,CCCOc1ccc(-c2c(=O)n(O)c3ccccc3[n+]2[O-])cc1,inactive
14,COc1ccc(CNC(=O)CCS(=O)(=O)c2cc3c4c(c2)CCN4C(=O)CC3)cc1,"inconclusive: 29.1 µM [rising, single point]"
15,COc1cccc(N=Nc2c(N)[nH]n3c(=O)c4c(nc23)CCCC4)c1,"inconclusive: 29.1 µM [cytotoxic, single point]"
16,CC(C)CN(CC(C)C)CC(O)COc1ccccc1Br (stereo not drawn),inactive
17,CCn1cc(C(=O)NCC(=O)NC(C)(C)CO)c(=O)c2cc3c(cc21)OCO3,"inconclusive: 9.2 µM [rising, partial curve]"
18,O=C(Nc1nnc(-c2ccc(F)cc2)o1)c1ccc(S(=O)(=O)N2CCOCC2)cc1,"inconclusive: 0.146 µM [cytotoxic, full curve]"
19,CCCCc1ccc(NC(=O)c2ccc(NS(C)(=O)=O)cc2)cc1,inactive
20,C=C1[C@@H](O)[C@H](Cc2ccccc2)N(Cc2ccccc2Br)S1(=O)=O,"inconclusive: 25.9 µM [cytotoxic, single point]"
21,Cc1ccc(S(=O)(=O)N2C[C@H]3n4c(=O)ccc(=O)n4C[C@H](OC(=O)NCc4ccco4)[C@@]3(O)C2)cc1,"inconclusive: 29.1 µM [rising, single point]"
22,O=C(COc1cccc(Cl)c1)Nc1ccccc1N1CCCCC1,"inconclusive: 23.1 µM [cytotoxic, partial curve, poor fit]"
23,Cc1nc(NC(=O)c2ccccc2)sc1C1(C)CC(c2c(Cl)cccc2Cl)=NO1 (stereo not drawn),inactive
24,O=C(Cn1cnc2c(cnn2-c2ccc(F)cc2)c1=O)N1CCN(c2ccccc2)CC1,"inconclusive: 2.59 µM [cytotoxic, full curve, poor fit]"
25,CC1=CC(C)(C)N2C(=O)C3(SCC(=O)N3c3ccc(F)cc3)c3cc(C)cc1c32 (stereo not drawn),active: 16.4 µM

# By substructure: the entries above with a Cl atom.
row,SMILES,Potency
8,O=S(=O)(c1cccc2ccccc12)N1CCC2CC1c1cc(Cl)ccc12 (stereo not drawn),inactive
22,O=C(COc1cccc(Cl)c1)Nc1ccccc1N1CCCCC1,"inconclusive: 23.1 µM [cytotoxic, partial curve, poor fit]"
23,Cc1nc(NC(=O)c2ccccc2)sc1C1(C)CC(c2c(Cl)cccc2Cl)=NO1 (stereo not drawn),inactive

# More structures follow.

row,SMILES,Potency
1,Cc1ccccc1CNC(=O)C(=O)NCC1OCCCN1S(=O)(=O)c1ccc(F)cc1C (stereo not drawn),"inconclusive: 11.6 µM [cytotoxic, partial curve]"
2,CCOc1ccc(C(=O)Nc2cc(-c3nc4ccccc4[nH]3)ccc2Cl)cc1[N+](=O)[O-],"inconclusive: 2.59 µM [cytotoxic, partial curve, poor fit]"
3,CCCCCCCCSc1nnc2[nH]c(=O)cc(N)n12,"inconclusive: 20.6 µM [rising, partial curve, poor fit]"
4,CCn1c(SCC(=O)Nc2ccccc2)nc2c(c1=O)SCC2,"inconclusive: 29.1 µM [cytotoxic, single point]"
5,Cc1ccc2oc(=O)n(CCCOc3ccccc3C)c2c1,"inconclusive: 20.6 µM [cytotoxic, single point]"
6,O=S(=O)(c1ccccc1)c1nc(-c2ccccc2)oc1NCCCN1CCOCC1,"inconclusive: 0.82 µM [cytotoxic, full curve, poor fit]"
7,Cc1csc(C(=O)O)c1NC(=O)c1c(Cl)cccc1Cl,inactive
8,COc1ccc(N(CC(=O)Nc2ccc(OC)c(Cl)c2)S(=O)(=O)c2c(C)noc2C)cc1,"inconclusive: 13 µM [cytotoxic, partial curve, poor fit]"
9,COc1ccc(-c2csc(Nc3ccccc3)n2)cc1,"inconclusive: 29.1 µM [cytotoxic, single point]"
10,O=Cc1ccnc2ccccc12,inactive
11,COc1ccccc1/C=C/C=N/n1c(C2CCCCC2)n[nH]c1=S,"inconclusive: 23.1 µM [cytotoxic, single point]"
12,Cc1cnc(C(=O)OCC(=O)NC(C)C)cn1,"inconclusive: 12.6 µM [rising, partial curve]"
13,CCN(c1ccccc1)S(=O)(=O)c1ccc(Cl)c(NC(=O)CN2CCCCCC2)c1,active: 20.6 µM
14,N#C/C(=N\Nc1ccccc1F)C(=N)N1CCCCC1,"inconclusive: 20.6 µM [cytotoxic, single point]"
15,Cc1cc(C)nc(NC(=O)CSc2nnnn2-c2ccccc2)n1,active: 20.6 µM
16,Oc1c(C(Nc2ccccn2)c2ccccn2)ccc2cccnc12 (stereo not drawn),active: 5.8 µM
17,CCOC(=O)COc1ccccc1/C=N\NC(=O)c1cc2c(ccc3ccccc32)o1,inactive
18,Cc1nn(Cc2ccc(Br)cc2)c(C)c1NC(=O)c1nn(C)cc1Cl,"inconclusive: 10.3 µM [cytotoxic, partial curve]"
19,O=C(O)c1cccc(NC(=O)c2cccc(S(=O)(=O)N3CCc4ccccc4C3)c2)c1,"inconclusive: 29.1 µM [rising, single point]"
20,O=c1c2ccccc2nc(-c2ccc(Cl)cc2)n1CCCCOc1ccc(F)cc1,inactive
21,COC(=O)c1ccc(C(=O)OC)c(NC(=S)N2CCC(C)CC2)c1,active: 16.4 µM
22,CCn1c(SCc2c(Cl)cccc2Cl)nnc1-c1nn(-c2ccccc2)ccc1=O,"inconclusive: 20.6 µM [cytotoxic, partial curve, poor fit]"
23,CCCCNC(=O)C1CCC(CNS(=O)(=O)c2cccc3nsnc23)CC1 (stereo not drawn),inactive
24,CCCNC(=S)N(Cc1ccccc1)Cc1nc2ccccc2c(=O)[nH]1,active: 5.17 µM
25,COc1ccc(CCNC(=O)C(=O)NCCC2CCCCN2S(=O)(=O)c2ccccc2)cc1 (stereo not drawn),"inconclusive: 29.1 µM [cytotoxic, single point]"

row,SMILES,Potency
1,O=C(C=Cc1ccc2c(c1)OCO2)C=Cc1ccc2c(c1)OCO2,"inconclusive: 25.9 µM [rising, single point]"
2,O=C1N/C(=N\N=C\c2ccccn2)SC1Cc1cccc(SC(F)F)c1 (stereo not drawn),active: 3.66 µM
3,COc1ccc(CCn2cnc3c([nH]c4ccccc43)c2=O)cc1,"inconclusive: 6.51 µM [cytotoxic, partial curve, poor fit]"
4,CCC(=O)N1CCc2cc(S(=O)(=O)NC(CC(C)C)C(=O)NCc3cccc(OC)c3)ccc21 (stereo not drawn),inactive
5,CCOc1ccc(NC(=O)CSc2cn[nH]n2)cc1,"inconclusive: 29.1 µM [rising, single point]"
6,COc1ccc(S(=O)(=O)N2CCOC2CNC(=O)C(=O)NCCc2ccc(OC)c(OC)c2)cc1 (stereo not drawn),active: 18.4 µM
7,COC(=O)c1[nH]c2cccc(OC)c2c1NC(=O)CN1CCN(c2cccc(OC)c2)C(C)C1 (stereo not drawn),"inconclusive: 25.9 µM [cytotoxic, partial curve, poor fit]"
8,CCCCC(=O)Nc1ccc2c(c1)nc1n2CCOC1,"inconclusive: 29.1 µM [cytotoxic, single point]"
9,Cc1ccc2cc(C#N)c(SCC(=O)NNC(=O)Cc3ccccc3)nc2c1,"inconclusive: 25.9 µM [rising, single point]"
10,CSc1nc(NCc2ccco2)c2ccccc2n1,active: 11.6 µM
11,O=C(NN1CCOCC1)c1ccc([N+](=O)[O-])cc1,inactive
12,COc1ccc(-c2cc(C(F)(F)F)nc(N)n2)cc1,"inconclusive: 0.651 µM [rising, full curve]"
13,CCN(CC)c1cc(-c2ccccc2)ncn1,"inconclusive: 29.1 µM [cytotoxic, single point]"
14,COc1ccc(-n2c(-c3ccc(Br)cc3)c[n+]3c2CCCCC3)cc1,inactive
15,Cc1cccc(C)c1OCC(=O)NNC(=S)NC(=O)C1CC1,inactive
16,CCOC(=O)c1c(C)[nH]c(C(=O)OCc2c(C)noc2C)c1C,"inconclusive: 5.17 µM [cytotoxic, full curve]"
17,COc1ccc(Nc2cc(C)nc(-n3nc(C)cc3C)n2)cc1,active: 0.231 µM
18,COc1ccccc1N1CCN(CC(O)COc2cccc3ccccc23)CC1 (stereo not drawn),"inconclusive: 23.1 µM [cytotoxic, single point]"
19,O=Nc1c(O)[nH]c2ccc(Cl)cc12,"inconclusive: 29.1 µM [cytotoxic, single point]"
20,COc1cc(N)c(Cl)cc1C(=O)OCC(=O)N1CCCCCC1,inactive
21,COc1cccc(C(C(=O)NCc2ccco2)N(Cc2ccco2)C(=O)Cn2nnc3ccccc32)c1 (stereo not drawn),inactive
22,CC1(C)CC(=O)C2=C(C1)Nc1ccccc1NC2c1cccnc1 (stereo not drawn),"inconclusive: 29.1 µM [rising, single point]"
23,CCOc1ccc(CC(=O)NCc2ccc3c(c2)CCN3C(=O)c2ccc(F)cc2)cc1OCC,"inconclusive: 29.1 µM [cytotoxic, single point]"

# Reformatted: two of the compounds above
row	SMILES	Potency
9	CCOc1ccc(CN2C(=O)c3ccccc3Sc3ccc(C(=O)NC4CCC(C)CC4)cc32)cc1 (stereo not drawn)	inactive
10	Cc1noc(C)c1C(=O)Nc1nccs1	inactive

# From PubChem BioAssay AID1347076 (National Center for Advancing Translational Sciences (NCATS), 2019)
